# Results are given in words; binding and its absence hold for the method and conditions named. In cells and extracts the contact can be indirect. Some entries that bind do so weakly or less than the wild type. For some of these results: Tags and fused reporters may be left off the sequences shown.
# Amino acid sequences for entries named in this document (tags omitted).
# UniProt Q6PGQ7: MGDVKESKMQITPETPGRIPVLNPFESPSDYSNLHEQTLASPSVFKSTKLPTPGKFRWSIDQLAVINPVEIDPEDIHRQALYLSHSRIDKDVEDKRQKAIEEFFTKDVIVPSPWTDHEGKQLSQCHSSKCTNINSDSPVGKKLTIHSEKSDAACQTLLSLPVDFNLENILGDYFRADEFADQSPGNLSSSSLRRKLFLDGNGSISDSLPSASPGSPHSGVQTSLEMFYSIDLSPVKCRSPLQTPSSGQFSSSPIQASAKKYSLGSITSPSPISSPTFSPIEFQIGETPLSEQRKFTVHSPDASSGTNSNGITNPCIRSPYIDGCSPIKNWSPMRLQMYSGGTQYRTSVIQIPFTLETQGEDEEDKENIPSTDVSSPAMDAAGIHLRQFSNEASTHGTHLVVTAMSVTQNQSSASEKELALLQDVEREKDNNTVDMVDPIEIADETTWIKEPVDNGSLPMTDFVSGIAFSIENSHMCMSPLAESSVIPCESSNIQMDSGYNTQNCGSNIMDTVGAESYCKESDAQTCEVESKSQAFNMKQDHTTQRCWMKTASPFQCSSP
# What was measured:
# [1] = molecular target: PLK1-myc Y445F (UniProt P53350); assay: co-IP; overexpressed PLK1-myc WT or Y445F; RO3306 arrested G2 cells and nocodazole arrested M-phase cells; endogenous partners blotted in the eluates; 20 mM HEPES-KOH pH 7.9, 200 mM NaCl, 10% glycerol, 0.1% Triton X-100, 1 mM DTT, 4 °C
# [2] = molecular target: Polo-like kinase 1 (PLK1), endogenous (human (endogenous in 293T)) (UniProt P53350); assay: co-IP; Myc-tagged EYA1 or EYA3 and PLK1 in G2 arrested cells (Supplementary Fig. 1H); which partner was precipitated is not told
Molecule,binding [1],binding [2]
"BORA, endogenous (from UniProt Q6PGQ7 1-559)",binds,–
"Aurora kinase A (AURKA), endogenous (protein, UniProt O14965 1-403) MDRSKENCISGPVKATAPVGGPKRVLVTQQFPCQNPLPVNSGQAQRVLCPSNSSQRIPLQAQKLVSSHKPVQNQKQKQLQATSVPHPVSRPLNNTQKSKQPLPSAPENNPEEELASKQKNEESKKRQWALEDFEIGRPLGKGKFGNVYLAREKQSKFILALKVLFKAQLEKAGVEHQLRREVEIQSHLRHPNILRLYGYFHDATRVYLILEYAPLGTVYRELQKLSKFDEQRTATYITELANALSYCHSKRVIHRDIKPENLLLGSAGELKIADFGWSVHAPSSRRTTLCGTLDYLPPEMIEGRMHDEKVDLWSLGVLCYEFLVGKPPFEANTYQETYKRISRVEFTFPDFVTEGARDLISRLLKHNPSQRPMLREVLEHPWITANSSKPSNCQNKESASKQS",binds,–
"Myc-tagged EYA1 (protein, UniProt Q99502 1-592) MEMQDLTSPHSRLSGSSESPSGPKLGNSHINSNSMTPNGTEVKTEPMSSSETASTTADGSLNNFSGSAIGSSSFSPRPTHQFSPPQIYPSNRPYPHILPTPSSQTMAAYGQTQFTTGMQQATAYATYPQPGQPYGISSYGALWAGIKTEGGLSQSQSPGQTGFLSYGTSFSTPQPGQAPYSYQMQGSSFTTSSGIYTGNNSLTNSSGFNSSQQDYPSYPSFGQGQYAQYYNSSPYPAHYMTSSNTSPTTPSTNATYQLQEPPSGITSQAVTDPTAEYSTIHSPSTPIKDSDSDRLRRGSDGKSRGRGRRNNNPSPPPDSDLERVFIWDLDETIIVFHSLLTGSYANRYGRDPPTSVSLGLRMEEMIFNLADTHLFFNDLEECDQVHIDDVSSDDNGQDLSTYNFGTDGFPAAATSANLCLATGVRGGVDWMRKLAFRYRRVKEIYNTYKNNVGGLLGPAKREAWLQLRAEIEALTDSWLTLALKALSLIHSRTNCVNILVTTTQLIPALAKVLLYGLGIVFPIENIYSATKIGKESCFERIIQRFGRKVVYVVIGDGVEEEQGAKKHAMPFWRISSHSDLMALHHALELEYL",–,binds
"Myc-tagged EYA3 (protein, UniProt Q99504 1-573) MEEEQDLPEQPVKKAKMQESGEQTISQVSNPDVSDQKPETSSLASNLPMSEEIMTCTDYIPRSSNDYTSQMYSAKPYAHILSVPVSETAYPGQTQYQTLQQTQPYAVYPQATQTYGLPPFGALWPGMKPESGLIQTPSPSQHSVLTCTTGLTTSQPSPAHYSYPIQASSTNASLISTSSTIANIPAAAVASISNQDYPTYTILGQNQYQACYPSSSFGVTGQTNSDAESTTLAATTYQSEKPSVMAPAPAAQRLSSGDPSTSPSLSQTTPSKDTDDQSRKNMTSKNRGKRKADATSSQDSELERVFLWDLDETIIIFHSLLTGSYAQKYGKDPTVVIGSGLTMEEMIFEVADTHLFFNDLEECDQVHVEDVASDDNGQDLSNYSFSTDGFSGSGGSGSHGSSVGVQGGVDWMRKLAFRYRKVREIYDKHKSNVGGLLSPQRKEALQRLRAEIEVLTDSWLGTALKSLLLIQSRKNCVNVLITTTQLVPALAKVLLYGLGEIFPIENIYSATKIGKESCFERIVSRFGKKVTYVVIGDGRDEEIAAKQHNMPFWRITNHGDLVSLHQALELDFL",–,no binding
